According to the supplement of paper PMC12889115:
The list shows a part of the results. Values are raw readings; no control value is given beside them.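 First-pass screen: polymyxin B was added at a level that permeabilizes the Salmonella outer membrane while sparing the inner membrane. DMSO wells, with and without polymyxin B, defined maximum growth. Because plates differed from one another, each plate's data were ranked separately and the compounds with the lowest OD600 were carried forward as hits.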

Tested on: Salmonella enterica serovar Typhimurium SL1344
Assay: bacterial growth OD600 after 18 h with compound and polymyxin B; higher = more bacterial growth (less inhibition)
Conditions: 50 µM, Mueller-Hinton broth

Row | Compound | bacterial growth OD600 (polymyxin B 0.75 µg/mL) | bacterial growth OD600 (polymyxin B 1 µg/mL)
1 | O=C(CC1=CCCCC1)N1CCc2[nH]nc(-c3cccc(F)c3)c2C1 | 0.596 | 
2 | CCCc1cc(CNC(=O)c2ccc(N3CCCC3c3ccccn3)nc2)on1 (stereo unspecified) |  | 0.989
3 | CCC(COC)NC1CCN(c2ccc(C(=O)NCc3ccc4c(c3)OCO4)cc2)CC1 (stereo unspecified) | 0.92 | 
4 | COCC(=O)N1CCC(Oc2ccc(C(=O)NCc3cccc(OC)c3)cc2)CC1 |  | 1.02
5 | O=C(Cn1cncn1)N1CCCC(CCc2c(F)cccc2F)C1 (stereo unspecified) | 0.824 | 
6 | CS(=O)(=O)NCc1cccnc1N1CCN(c2ccccn2)CC1 |  | 0.956
7 | OC(c1ccccn1)C1CCN(c2nc3nonc3nc2N2CCCCCC2)CC1 (stereo unspecified) |  | 0.883
8 | O=C1N(Cc2ccc(F)cc2)CCCC1(O)CN1CCC(Cn2cccn2)CC1 (stereo unspecified) |  | 1
9 | CC(C)CCC1(C2CCN(C(=O)c3cccc(F)c3F)CC2)NC(=O)N(Cc2ccccn2)C1=O (stereo unspecified) | 0.87 | 
10 | Nc1ncc(CN2CCC(N3CCC(C(=O)NCc4ccccn4)CC3)CC2)cn1 |  | 1.12
11 | Cn1nc(C(=O)N2CCCC(CCc3ccc(F)cc3F)C2)ccc1=O (stereo unspecified) | 0.645 | 
12 | Cn1ccnc1CN1CCC(CCC(=O)Nc2ccc3c(c2)OCCO3)CC1 |  | 1.06
13 | CCN(CC)C(=O)C1CCCN(C(=O)c2ccc3nc(-c4cccc(OC)c4)oc3c2)C1 (stereo unspecified) |  | 0.957
14 | CCOC(=O)C1(Cc2cccc(OC)c2)CCN(Cc2ccccc2OC)CC1 |  | 0.933
15 | Cc1c[nH]c(CN(C)C2CCCN(C3Cc4ccccc4C3)C2)n1 (stereo unspecified) |  | 0.939
16 | Cc1csc(SCC(=O)N2CCCC(CNS(=O)(=O)c3cccs3)C2)n1 (stereo unspecified) |  | 1.06

Row | Compound | bacterial growth OD600 (polymyxin B 0.75 µg/mL) | bacterial growth OD600 (polymyxin B 1 µg/mL)
17 | COc1ccc(CCCNC(=O)c2ccc(N3CCN(C(C)C)CC3)nc2)cc1 |  | 1.09
18 | OCC1(Cc2ccccc2Cl)CCN(Cc2cccc(F)c2F)CC1 |  | 0.732
19 | CC(C)Cn1cc(C(=O)N2CCCCCC2)c(=O)c(C(=O)N2CCN(c3cccc(Cl)c3)CC2)c1 | 0.97 | 
20 | COC(=O)CCC(=O)NC1CCCc2nc(-c3ccccc3)ncc21 (stereo unspecified) |  | 1.14
21 | CCn1ccnc1CN(C)Cc1nc(Cc2cccc(C(F)(F)F)c2)no1 |  | 0.794
22 | CC(C)N(CC1CCC(=O)N1)c1ccc(-c2nc(Cc3ccccc3)no2)cn1 (stereo unspecified) | 0.52 | 
23 | COC(=O)[C@@H]1CCCN1C1CCN(c2ccc(CC(=O)NCCc3ccccc3OC)cc2)CC1 | 0.829 | 
24 | CCOC(=O)c1n[nH]cc1CN1CCOC(Cc2ccc(OC)cc2)C1 (stereo unspecified) | 0.872 | 
25 | COC(c1ccc2c(c1)CN(C(=O)c1cc3ncccn3n1)CCO2)C1CCCCC1 (stereo unspecified) | 0.004 | 
26 | CCOC(=O)CNC(=O)N(C)CC1CCCN(CCc2ccccc2OC)C1 (stereo unspecified) |  | 0.949
27 | CCN(CC1CCCO1)C(=O)C1CCN(c2nc(C)c3ccc(S(C)(=O)=O)cc3n2)CC1 (stereo unspecified) | 0.815 | 
28 | CCOc1ccc2nc(N3CCCC(C(=O)NCCn4nc(C)cc4C)C3)nc(C)c2c1 (stereo unspecified) | 0.866 | 
29 | CCn1ccnc1CNC(=O)c1cc(COc2ccc3sc(C)nc3c2)on1 | 0.959 | 
30 | COc1cc(CN2CCC(CO)(CCCc3ccccc3)CC2)cc(OC)c1OC |  | 0.951
31 | O=C(c1ccc2oc(Cc3ccccc3)nc2c1)N(CCO)Cc1ccccc1 | 0.993 | 

Reprinted at random: 2 entries already listed.
Row | Compound | bacterial growth OD600 (polymyxin B 0.75 µg/mL) | bacterial growth OD600 (polymyxin B 1 µg/mL)
15 | Cc1c[nH]c(CN(C)C2CCCN(C3Cc4ccccc4C3)C2)n1 (stereo unspecified) |  | 0.939
3 | CCC(COC)NC1CCN(c2ccc(C(=O)NCc3ccc4c(c3)OCO4)cc2)CC1 (stereo unspecified) | 0.92 | 
